In PMC4631508:
No constants are given. Whether binding was seen depends on the method and setting. Binding seen in cells or lysates may run through a third protein.

Target: GFP-Exo84 (Drosophila)
Assay: co-IP; protein extracts from Drosophila testes expressing GFP- or YFP-tagged proteins; precipitated with GFP-trap beads (ChromoTek), immunoblotted

binding: no binding
B1: Rab11 (protein, UniProt O18335 1-214)
chain: MGAREDEYDYLFKVVLIGDSGVGKSNLLSRFTRNEFNLESKSTIGVEFATRSIEVDGKTIKAQIWDTAGQERYRAITSAYYRGAVGALLVYDIAKHLTYENVERWLRELRDHADQNIVIMLVGNKSDLRHLRSVPTDEAKLFAERNGLSFIETSALDSTNVETAFQNILTEIYRIVSQKQIRDPPEGDVIRPSNVEPIDVKPTVTADVRKQCCQ
